Assay: peptide synthesis
Conditions: purification step, oxalate

Q: Which step yield does the source give for Carfilzomib here?
A: 80%

— patent US20180002377 (published 2018)
